Experimental data from PMC11322866.
These are yes or no findings as the source states them, for the method shown. Binding seen in cells or lysates may run through a third protein. Some entries that bind do so weakly or less than the wild type.

By UniProt entry, the sequences of proteins in these tests, tags left out.
UniProt Q15910: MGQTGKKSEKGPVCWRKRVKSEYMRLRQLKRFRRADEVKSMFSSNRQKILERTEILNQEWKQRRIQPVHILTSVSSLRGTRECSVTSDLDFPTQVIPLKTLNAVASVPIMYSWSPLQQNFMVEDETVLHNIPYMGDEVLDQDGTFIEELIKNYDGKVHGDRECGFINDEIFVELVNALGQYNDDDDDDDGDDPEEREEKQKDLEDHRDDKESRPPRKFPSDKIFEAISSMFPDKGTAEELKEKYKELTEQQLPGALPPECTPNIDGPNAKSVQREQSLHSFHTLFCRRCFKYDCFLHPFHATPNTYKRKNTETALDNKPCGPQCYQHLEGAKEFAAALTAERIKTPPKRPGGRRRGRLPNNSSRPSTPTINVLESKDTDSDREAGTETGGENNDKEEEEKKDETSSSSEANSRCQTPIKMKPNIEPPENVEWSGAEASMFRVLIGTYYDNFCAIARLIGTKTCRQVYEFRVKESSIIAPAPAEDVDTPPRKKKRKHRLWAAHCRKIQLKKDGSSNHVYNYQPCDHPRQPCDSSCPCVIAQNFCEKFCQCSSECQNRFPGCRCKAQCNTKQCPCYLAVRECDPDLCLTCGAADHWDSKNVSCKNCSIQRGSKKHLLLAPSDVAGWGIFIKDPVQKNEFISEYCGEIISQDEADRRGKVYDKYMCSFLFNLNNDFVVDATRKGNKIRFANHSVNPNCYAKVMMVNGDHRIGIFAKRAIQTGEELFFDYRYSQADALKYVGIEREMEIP

Molecular target: enhancer of zeste homolog 2 (human (endogenous in RPMI-8226 and OCI-MY5)) (UniProt Q15910)
Assay: co-IP; total protein lysates of RPMI-8226 and OCI-MY5 cells; immunoprecipitation with anti-RRM2 and anti-EZH2 antibodies and protein A/G agarose resin, washed with lysis buffer, western blot

binding: binds
B1: ribonucleotide reductase regulatory subunit M2 (protein, UniProt P31350 1-389)
chain: MLSLRVPLAPITDPQQLQLSPLKGLSLVDKENTPPALSGTRVLASKTARRIFQEPTEPKTKAAAPGVEDEPLLRENPRRFVIFPIEYHDIWQMYKKAEASFWTAEEVDLSKDIQHWESLKPEERYFISHVLAFFAASDGIVNENLVERFSQEVQITEARCFYGFQIAMENIHSEMYSLLIDTYIKDPKEREFLFNAIETMPCVKKKADWALRWIGDKEATYGERVVAFAAVEGIFFSGSFASIFWLKKRGLMPGLTFSNELISRDEGLHCDFACLMFKHLVHKPSEERVREIIINAVRIEQEFLTEALPVKLIGMNCTLMKQYIEFVADRLMLELGFSKVFRVENPFDFMENISLEGKTNFFEKRVGEYQRMGVMSSPTENSFTLDADF
